Experimental data from US20200247897A1, “THERAPEUTIC ANTIBODIES BASED ON MUTATED IGG HEXAMERS” (GENMAB B.V., priority 2017, published 2020).
The source gives many values for each of these; only a part stands here.

Tested on: panel of 235 cell lines representing 14 tumor lineages
Test: ATPlite growth inhibition screening of a human cancer cell line panel (Horizon Discovery)
Type: cell-based
Protocol: A 72 hour ATPlite assay (except for DLD-1 and HCT116 cell lines, for which a 120 hour assay was performed) with growth inhibition analysis was performed in two parts at Horizon Discovery Ltd, UK. Samples were tested as four replicates in 384-well assay plates. Serial dilution series of antibody, starting from 0.072 μM final concentration was used for all tested cell lines. For TRAIL (Invitrogen; Cat # PHC1634) serial dilution series starting from 0.01 μM final concentration for the cell lines tested in the first part and 0.17 μM final concentration for the cell lines tested in the second part of the screening was used.

TRAIL: natural DR5 ligand, recombinant human TRAIL/APO-2L
Max Inhibition (A498, kidney cancer, screening #2): 96.1%
Max Inhibition (A704, kidney cancer, screening #1): 77.1%
Max Inhibition (BICR 18, head and neck cancer, screening #1): 3.4%
Max Inhibition (BICR 22, head and neck cancer, screening #1): 13.6%
Max Inhibition (BICR 31, head and neck cancer, screening #1): 38.9%
Max Inhibition (BT-20, breast cancer (TNBC), screening #2): 48.9%
Max Inhibition (BT-549, breast cancer (TNBC), screening #2): 44.0%
Max Inhibition (C2BBe1, colorectal cancer, screening #1): 8.8%
Max Inhibition (CJM, head and neck cancer, screening #1): 12.8%
Max Inhibition (CL-11, colorectal cancer, screening #1): 85.9%
Max Inhibition (CL-34, colorectal cancer, screening #1): 98.8%
Max Inhibition (CL-40, colorectal cancer, screening #1): 57.3%
Max Inhibition (COLO320DM, colorectal cancer, screening #1): 8.0%
Max Inhibition (COLO-201, colorectal cancer, screening #1): 89.1%
Max Inhibition (COLO-205, colorectal cancer, screening #1): 83.5%
Max Inhibition (COLO-206F, colorectal cancer, screening #1): 99.2%
Max Inhibition (COLO-320, colorectal cancer, screening #1): 3.9%
Max Inhibition (COLO-678, colorectal cancer, screening #1): 10.1%
Max Inhibition (COLO-684, endometrial cancer, screening #1): 16.6%
Max Inhibition (DBTRG-05MG, neural tissue cancer, screening #2): 36.0%
Max Inhibition (DLD-1, colorectal cancer, screening #1): 55.1%
Max Inhibition (DLD-1_BRCA2 (−/−), colorectal cancer, screening #1): 60.0%
Max Inhibition (DU-4475, breast cancer (TNBC), screening #2): 87.0%
Max Inhibition (EC-GI-10, head and neck cancer, screening #1): 29.6%
Max Inhibition (ECC10, gastric cancer, screening #1): 14.0%
Max Inhibition (ECC12, gastric cancer, screening #1): 27.4%
Max Inhibition (FTC-238, head and neck cancer, screening #1): 86.7%
Max Inhibition (G-401, kidney cancer, screening #2): 76.6%
Max Inhibition (GP2D, colorectal cancer, screening #1): 100.0%
Max Inhibition (GSS, gastric cancer, screening #1): 15.4%
Max Inhibition (GSU, gastric cancer, screening #1): 81.6%
Max Inhibition (H4, neural tissue cancer, screening #2): 98.9%
Max Inhibition (HCC38, breast cancer (TNBC), screening #2): 96.9%
Max Inhibition (HCC70, breast cancer (TNBC), screening #2): 3.6%
Max Inhibition (HCC1187, breast cancer (TNBC), screening #2): 99.4%
Max Inhibition (HCC1806, breast cancer (TNBC), screening #2): 97.8%
Max Inhibition (HCT-15, colorectal cancer, screening #1): 98.6%
Max Inhibition (HCT-116_ARID1A (Q456*/Q456*), colorectal cancer, screening #1): 50.2%
Max Inhibition (HCT-116_KRAS (+/−), colorectal cancer, screening #1): 88.7%
Max Inhibition (HCT-116_PAR-007, colorectal cancer, screening #1): 14.2%
Max Inhibition (HCT-116_PIK3A (+/−)KO mt H1047R, colorectal cancer, screening #1): 59.8%
Max Inhibition (HCT-116_PTEN (−/−), colorectal cancer, screening #1): 38.0%
Max Inhibition (HCT-116_TP53 (−/−), colorectal cancer, screening #1): 17.2%
Max Inhibition (HEC-1, endometrial cancer, screening #1): 8.1%
Max Inhibition (HEC-1-A, endometrial cancer, screening #1): 22.8%
Max Inhibition (HEC-50B, endometrial cancer, screening #1): 16.6%
Max Inhibition (HEC-108, endometrial cancer, screening #1): 64.9%
Max Inhibition (HEC-265, endometrial cancer, screening #1): 100.0%
Max Inhibition (HLE, liver cancer, screening #1): 56.0%
Max Inhibition (HMC-1-8, breast cancer (TNBC), screening #2): 70.0%
Max Inhibition (HRT-186, colorectal cancer, screening #1): 52.5%
Max Inhibition (HSC-4, head and neck cancer, screening #1): 0.5%
Max Inhibition (HT55, colorectal cancer, screening #1): 76.4%
Max Inhibition (HT-29, colorectal cancer, screening #1): 12.2%
Max Inhibition (HT-115, colorectal cancer, screening #1): 99.7%
Max Inhibition (HUH-6-clone5, liver cancer, screening #1): 20.2%
Max Inhibition (HuCCT1, liver cancer, screening #1): 7.5%
Max Inhibition (HuH-1, liver cancer, screening #1): 47.7%
Max Inhibition (HuH-28, liver cancer, screening #1): 17.5%
Max Inhibition (IST-SL2, SCLC, screening #1): 21.0%
Max Inhibition (JHUEM-2, endometrial cancer, screening #1): 66.4%
Max Inhibition (JHUEM-3, endometrial cancer, screening #1): 18.4%
Max Inhibition (KE-97, gastric cancer, screening #1): 23.4%
Max Inhibition (KNS-81, neural tissue cancer, screening #2): −6.6%
Max Inhibition (KYM-1, head and neck cancer, screening #1): 30.2%
Max Inhibition (KYSE-30, head and neck cancer, screening #1): 8.0%
Max Inhibition (KYSE-70, head and neck cancer, screening #1): 46.0%
Max Inhibition (KYSE-270, head and neck cancer, screening #1): 5.4%
Max Inhibition (KYSE-410, head and neck cancer, screening #1): 10.6%
Max Inhibition (LMSU, gastric cancer, screening #1): 9.0%
Max Inhibition (LOVO, colorectal cancer, screening #1): 44.5%
Max Inhibition (LS-411N, colorectal cancer, screening #1): 26.9%
Max Inhibition (LU-134-A, SCLC, screening #1): 28.0%
Max Inhibition (LU-135, SCLC, screening #1): 9.7%
Max Inhibition (LU-139, SCLC, screening #1): 10.0%
Max Inhibition (Li-7, liver cancer, screening #1): 20.4%
Max Inhibition (MDA-MB-231, breast cancer (TNBC), screening #1): 53.3%
Max Inhibition (MDA-MB-436, breast cancer (TNBC), screening #2): 76.3%
Max Inhibition (MDST8, colorectal cancer, screening #1): 58.3%
Max Inhibition (MES-SA, endometrial cancer, screening #1): 92.6%
Max Inhibition (MFE-280, endometrial cancer, screening #1): 11.0%
Max Inhibition (MFE-296, endometrial cancer, screening #1): 8.7%
Max Inhibition (MKN1, gastric cancer, screening #1): 10.5%
Max Inhibition (NCC-StC-K140, gastric cancer, screening #1): 9.8%
Max Inhibition (NCI-H69, SCLC, screening #1): 14.5%
Max Inhibition (NCI-H345, SCLC, screening #1): 16.4%
Max Inhibition (NCI-H446, SCLC, screening #1): 11.7%
Max Inhibition (NMC-G1, neural tissue cancer, screening #2): 15.2%
Max Inhibition (NUGC-3, gastric cancer, screening #1): 38.7%
Max Inhibition (PE-CA-PJ34-cl C12, head and neck cancer, screening #1): 4.7%
Max Inhibition (RERF-GC-1B, gastric cancer, screening #1): 14.0%
Max Inhibition (RH-41, liver cancer, screening #1): 3.0%
Max Inhibition (RKO, colorectal cancer, screening #1): 10.5%
Max Inhibition (RL95-2, endometrial cancer, screening #1): 97.7%
Max Inhibition (SCC-15, head and neck cancer, screening #1): 19.4%
Max Inhibition (SF126, neural tissue cancer, screening #2): 85.6%
Max Inhibition (SH-10-TC, gastric cancer, screening #1): 34.9%
Max Inhibition (SHP-77, SCLC, screening #1): 9.1%
Max Inhibition (SK-UT-1, endometrial cancer, screening #1): 10.9%
Max Inhibition (SNB-75, neural tissue cancer, screening #2): 9.6%
Max Inhibition (SNG-II, endometrial cancer, screening #1): 77.2%
Max Inhibition (SNU5, gastric cancer, screening #1): 91.2%
Max Inhibition (SNU283, colorectal cancer, screening #1): 40.3%
Max Inhibition (SNU1033, colorectal cancer, screening #1): 51.7%
Max Inhibition (SNU-175, colorectal cancer, screening #1): 96.2%
Max Inhibition (SNU-216, gastric cancer, screening #1): 49.6%
Max Inhibition (SNU-407, colorectal cancer, screening #1): 96.1%
Max Inhibition (SNU-478, liver cancer, screening #1): 83.3%
Max Inhibition (SNU-601, gastric cancer, screening #1): 85.2%
Max Inhibition (SNU-620, gastric cancer, screening #1): 99.9%
Max Inhibition (SNU-668, gastric cancer, screening #1): 99.6%
Max Inhibition (SNU-719, gastric cancer, screening #1): 85.4%
Max Inhibition (SNU-761, liver cancer, screening #1): 7.1%
Max Inhibition (SNU-869, liver cancer, screening #1): 58.6%
Max Inhibition (SNU-1079, liver cancer, screening #1): 24.9%
Max Inhibition (SNU-1196, liver cancer, screening #1): 44.3%
Max Inhibition (SNU-1197, colorectal cancer, screening #1): 100.0%
Max Inhibition (SNU-C2B, colorectal cancer, screening #1): 71.3%
Max Inhibition (SUM159PT, breast cancer (TNBC), screening #2): 98.6%
Max Inhibition (SW480, colorectal cancer, screening #1): 55.2%
Max Inhibition (SW837, colorectal cancer, screening #1): 83.8%
Max Inhibition (SW1116, colorectal cancer, screening #1): 23.1%
Max Inhibition (SW1417, colorectal cancer, screening #1): 12.2%
Max Inhibition (TE-1, head and neck cancer, screening #1): 23.0%
Max Inhibition (TE-4, head and neck cancer, screening #1): 81.0%
Max Inhibition (TE-5, head and neck cancer, screening #1): 11.6%
Max Inhibition (TE-6, head and neck cancer, screening #1): 55.3%
Max Inhibition (TE-8, head and neck cancer, screening #1): 39.6%
Max Inhibition (TE-9, head and neck cancer, screening #1): 73.6%
Max Inhibition (TE-10, head and neck cancer, screening #1): 24.4%
Max Inhibition (TEN, endometrial cancer, screening #1): 70.0%
Max Inhibition (U-87 MG, neural tissue cancer, screening #2): 8.0%
Max Inhibition (YD-8, head and neck cancer, screening #1): 3.4%
Max Inhibition (YD-15, head and neck cancer, screening #1): 100.0%
Max Inhibition (YH-13, neural tissue cancer, screening #2): 39.5%
